# PubChem BioAssay AID504791 | Drosophila RNAi Screening Center – 2011
# Assay: 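Genes whose knock-down strengthens or weakens small-RNA reporter silencing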 (primary screen)
# System: Drosophila S2-derived reporter cells
# Reagent: long dsRNA against Drosophila genes, about 150-250 ng dsRNA per well (siRNA assay); about 80-120 ng (miRNA assay)
# Duration: about 5 days (siRNA assay); about 4 days (miRNA assay)
# Treatment: copper sulfate induction of reporters: 25 µM (siRNA assay); 200 mM stated (miRNA assay), 1-2 days before reading
# Read-out: 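Per-well ratio of Renilla over firefly light, expressed relative to that plate's average ratio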
# Call rule: 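First-pass picks had plate-scaled ratios over 1.5 for the siRNA assay, over 1.6 for the miRNA assay, or under 0.6; two distinct dsRNAs had to score alike on retest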
# The deposit covers about 23,000 reagents; this is an unselected part of those that have a named target and a result. In the full data, 199 (0.86%) were called active. 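Plate-scaled ratios behind the calls are not deposited; printed light signals are raw; many rows marked increased or decreased are still called inactive.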 A number with no mark means an inactive call. The numbers tell different reagents against one gene apart. A plus sign joins genes that one reagent is predicted to hit. Not stated in the record: the direction of the score.
predicted target,reagent no.,"stable assay Renilla, run 1 (luminescence)","stable assay firefly, run 1 (luminescence)"
CG14965,1,7130,3.86e5
CG14435,1,4508,2.00e5
CG14435,2,2991,2.55e5
CG12133,1,6912,4.99e5
vis + achi,1,7374,4.10e5
CG4884,1,7155,4.56e5
Eaf (ELL-associated factor),1,2876,2.46e5
Eaf (ELL-associated factor),2,38395,1.46e6
Eaf (ELL-associated factor),3,9016,6.05e5
bcn92,1,5028,4.01e5
CG17362,1,7234,4.41e5
Itgbn (Integrin betanu subunit),1,8484,5.23e5
osp (outspread),1,5684,3.16e5
osp (outspread),2,10410,1.03e6
HIP + HIP-R,1,7386,4.71e5
CG4066,1,6551,4.24e5
Dbp45A (DEAD box protein 45A),1,8145,5.06e5
CG13924,1,4468,2.99e5
Pc (Polycomb),1,7230,3.41e5
Etf-QO (Electron transfer flavoprotein-ubiquinone oxidoreductase),1,7032,4.77e5
Pxd (Peroxidase),1,8186,5.26e5
trbl (tribbles),1,7386,3.78e5
CG13871,1,6811,3.23e5
Sirt1 (Sirtuin 1),1,30980,4.35e5
Hydr1 (alpha/beta hydrolase 1),1,5095,4.94e5
Pus10 (Pseudouridine synthase 10),1,11200,5.90e5
CG5902,1,8002,3.94e5
"E(spl)m7-HLH (Enhancer of split m7, helix-loop-helix)",1,6924,3.39e5
CG12963,1,5819,3.30e5
RpS5b (Ribosomal protein S5b),1,7708,4.05e5
CG4291,1,31010,1.03e5
Src42A (Src oncogene at 42A),1,5779,3.36e5
Klp64D (Kinesin-like protein at 64D),1,5147,3.82e5
CG4045,1,9688,5.48e5
Nbr (Nibbler),1,15327,5.68e5
CG9154,1,1.00e5,1.31e5
CG9522,1,6151,4.03e5
Ugalt (UDP-galactose transporter),1,7283,5.08e5
LS2 (Large Subunit 2),1,7110,4.84e5
CG7878,1,8086,3.40e5
mah (mahogany),1,6950,3.57e5
CG8671,1,6599,3.19e5
CG8671,2,7350,3.17e5
Lis-1 (Lissencephaly-1),1,6750,3.21e5
CG34357,1,7963,3.38e5
CG34357,2,5350,2.38e5
CG34357,3,6662,3.32e5
CG34357,4,3976,2.93e5
Myo28B1 (Myosin 28B1),1,7046,5.09e5
Tti1 (Telo2 interacting protein 1),1,6667,3.73e5
Prim2 (DNA primase subunit 2),1,8291,4.00e5
pyx (pyrexia),1,6442,3.64e5
pyx (pyrexia),2,7259,4.10e5
zpg (zero population growth),1,7246,4.11e5
intr (intrepid),1,7668,3.86e5
Dcr-1 (Dicer-1),1,7887,3.42e5
Pfdn4 (Prefoldin 4),1,5867,3.13e5

Copied from the listing, 5 entries:
predicted target,reagent no.,"stable assay Renilla, run 1 (luminescence)","stable assay firefly, run 1 (luminescence)"
pyx (pyrexia),2,7259,4.10e5
zpg (zero population growth),1,7246,4.11e5
intr (intrepid),1,7668,3.86e5
Dcr-1 (Dicer-1),1,7887,3.42e5
Pfdn4 (Prefoldin 4),1,5867,3.13e5
